Patent US20240336673A1 (WEST VIRGINIA UNIVERSITY BOARD OF GOVERNERS ON BEHALF OF …, published 2024)
These are yes or no findings as the source states them, for the method shown. A result given as binding can be weak or reduced; the word gives no strength.

How the values were obtained:
Test in all cases: ELISA on whole bacteria
[1] = target: Enterobacter clocae flagellin (Enterobacter cloacae)
[2] = target: Salmonella enterica flagellin (Salmonella enterica)
[3] = target: Acinetobacter baumannii flagellin (Acinetobacter baumannii)
[4] = target: B. pertussis flagellin (Bordetella pertussis)
[5] = target: S. marcescens flagellin (Serratia marcescens)
[6] = target: Escherichia coli flagellin (Escherichia coli)

Measured: binding

B1: WVDC-2109 (antibody, V domains shown)
VH: EVQLQESGAELVKPGASVKLSCKASGYTFTSYWMHWVKQRPGQGLEWIGMIRPNSGSTNYNEKFKSKATLTVDKSSSTAYMQLSSPTSEDSAVYYCARRGYGSSYGYYAMDYWGQGTSVTVSS
VL: DIVVTQTTSSLSASLGDRVTISCRASQDISNYLNWYQQKPDGTVKLLINYTSRLNSGVPSRFSGSGSGTDYSLTISNLEQEDIATYFCQQGNTLPWTFGGGTKLE
notes: also called anti-FliC mAb; mAb WVDC-2109
binds: all assays above
